PubChem BioAssay AID602196, INSERM – 2012
Assay: 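Genes whose knock-down alters cisplatin killing of lung cancer cells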. Cell system: human A549 lung cancer cells. Knock-down reagent: siRNA pair against human genes. Timing: 48 h transfection before cisplatin; time from cisplatin to read-out not stated. Challenge: cisplatin at a dose killing half of control-siRNA cells; exact dose and duration not given. Read-out: 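Cisplatin cell death as a shift from the 50% death seen with control siRNA; siRNAs toxic or growth-blocking alone scored 0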. Reading the numbers: two-siRNA summed score (-2 to +2): higher = both siRNAs protect from cisplatin killing; -2 means both sensitise. Active means: 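siRNAs harmful alone (LDH or WST-1) get 0; others get +1 for less and -1 for more cisplatin killing; genes are active when the two siRNAs give the same sign, summing to ±2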. Calls: active = both siRNAs shift cisplatin killing the same way; inactive = no consistent shift, or siRNA harmful alone.
Shown is a random part of about 23,000 deposited reagents. Over the whole deposit, 455 (2%) were called active. 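Active includes both protection and sensitisation; some change values fall well beyond the stated -50 to +50 range.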 Further read-outs or replicates are left out here. Not stated in the record: the amount of reagent.

LOC391498: two-siRNA summed score (-2 to +2) = 1; Outcome = inactive
C5orf24: two-siRNA summed score (-2 to +2) = 1; Outcome = inactive
SRPK1: two-siRNA summed score (-2 to +2) = -1; Outcome = inactive
CENPL: two-siRNA summed score (-2 to +2) = 1; Outcome = inactive
GAS2L1P2: two-siRNA summed score (-2 to +2) = 0; Outcome = inactive
MRPS15: two-siRNA summed score (-2 to +2) = 0; Outcome = inactive
ATG14: two-siRNA summed score (-2 to +2) = 0; Outcome = inactive
EPB41L4A-AS1: two-siRNA summed score (-2 to +2) = 0; Outcome = inactive
LOC442498: two-siRNA summed score (-2 to +2) = 1; Outcome = inactive
GDF3: two-siRNA summed score (-2 to +2) = 1; Outcome = inactive
EZH2: two-siRNA summed score (-2 to +2) = -1; Outcome = inactive
ALS2CL: two-siRNA summed score (-2 to +2) = 0; Outcome = inactive
ITGB5: two-siRNA summed score (-2 to +2) = 0; Outcome = inactive
RGS7: two-siRNA summed score (-2 to +2) = 0; Outcome = inactive
ASB17: two-siRNA summed score (-2 to +2) = 0; Outcome = inactive
BAG6: two-siRNA summed score (-2 to +2) = 1; Outcome = inactive
BCAR3: two-siRNA summed score (-2 to +2) = -1; Outcome = inactive
LDOC1: two-siRNA summed score (-2 to +2) = 1; Outcome = inactive
LOC441088: two-siRNA summed score (-2 to +2) = -1; Outcome = inactive
PGAP3: two-siRNA summed score (-2 to +2) = 0; Outcome = inactive
OR5H14: two-siRNA summed score (-2 to +2) = 0; Outcome = inactive
FOLR3: two-siRNA summed score (-2 to +2) = 0; Outcome = inactive
LOC387981: two-siRNA summed score (-2 to +2) = 0; Outcome = inactive
ATP5MF: two-siRNA summed score (-2 to +2) = 0; Outcome = inactive
NQO2: two-siRNA summed score (-2 to +2) = 0; Outcome = inactive
BLOC1S4: two-siRNA summed score (-2 to +2) = 0; Outcome = inactive
USP50: two-siRNA summed score (-2 to +2) = 1; Outcome = inactive
LOC340075: two-siRNA summed score (-2 to +2) = 0; Outcome = inactive
DENND2A: two-siRNA summed score (-2 to +2) = 1; Outcome = inactive
MAGEL2: two-siRNA summed score (-2 to +2) = 0; Outcome = inactive
KIRREL3: two-siRNA summed score (-2 to +2) = 0; Outcome = inactive
FLJ45300: two-siRNA summed score (-2 to +2) = 0; Outcome = inactive
LOC442069: two-siRNA summed score (-2 to +2) = 1; Outcome = inactive
LRTOMT: two-siRNA summed score (-2 to +2) = 0; Outcome = inactive
USE1: two-siRNA summed score (-2 to +2) = 0; Outcome = inactive
PARN: two-siRNA summed score (-2 to +2) = 0; Outcome = inactive
SPINK2: two-siRNA summed score (-2 to +2) = 0; Outcome = inactive
TMBIM4: two-siRNA summed score (-2 to +2) = 0; Outcome = inactive
LOC388353: two-siRNA summed score (-2 to +2) = 1; Outcome = inactive
GLYR1: two-siRNA summed score (-2 to +2) = 0; Outcome = inactive
